Laboratory results as given in patent publication US7144731B2, “SCF antibody compositions and methods of using the same” (Amgen Inc., priority 1989, dated 2006).
Some entries share one result that the patent states for a list of compounds.

Biological target: T1, SCF receptor (OCIM1 plasma membrane) (Homo sapiens, UniProt P10721)
T1 construct: endogenous in cells; host or cells: OCIM1 human erythroleukemic cells, plasma membrane preparation
Test: SCF radioreceptor assay
Format: binding
Conditions: radioreceptor and/or UT-7 assay
Description: OCIM1 cells, [Papayannopoulou et al., Blood 72:1029–1038 (1988)] are a human erythroleukemic cell line expressing many human SCF receptors per cell. These cells are grown in Iscove's Modified Dulbecco's Medium, 10% FBS, and 1× glutamine and passaged 3 times a week to 1×10^5 cells/ml.
Preparation of the OCIM1 plasma membrane is as follows with all steps performed on ice.
First, 40 T175 flasks of cells were grown-up in OCIM1 culture medium, for a total of 1.9×10^9 […]. The conditioned medium and 1 mM Phenyl Methyl Sulfonyl Fluoride (PMSF) protease inhibitor, was spun down in 8×250 ml tubes at 1000 rpm for 10 minutes at 4° C. Cells were washed with PBS and repelleted in 4×50 ml centrifuge tubes at 1000 rpm for 10 minutes at 4° C. Cells were resuspended in 20 ml ice cold PBS with glucose sodium pyruvate (Gibco Cat #310-4287). The 20 ml cell solution was put into a pre-pressurized, pre-chilled (4° C.) “cell bomb” designed to lyse the cells. Cells were pressurized at 400–650 PSI for 10 minutes to establish equilibrium. When the pressure is released cell lysis occurs.
At this point the cells were checked for the percentage of cell lysis. 90% lysis was common. The cell suspension was resuspended in 80 mls sucrose buffer (0.25M sucrose, 10 mM Tris, 1 mM EDTA in double distilled (dd) H2O, filtered through a 0.45 u filter, pH 7.0) and divided between two 40 ml screwcap tubes. […]

Substance | specific activities in the radioreceptor assay and/or UT-7 assay
SCF^2-164: E. coli human SCF analog, amino acids 2 to 164 (FIG. 42 numbering) | 30–80 % of the values for SCF^1-164 and SCF^1-165
SCF^5-164: E. coli human SCF analog, amino acids 5 to 164 | 30–80 % of the values for SCF^1-164 and SCF^1-165
